Results from article PMC1414084.
These are yes or no findings as the source states them, for the method shown. Some entries that bind do so weakly or less than the wild type. For some assays here: Sequences can lack the tags named with a protein.

Experiments:
Experiment in all cases: two-hybrid; mammalian two-hybrid; bait fused to the Gal4 DNA-binding domain (BIND), prey to the VP16 transcriptional activation domain (ACT); luciferase reporter; cultured mammalian cells, 37°C; positive from 3 times the background activity (level 1), the selected set is level 2 (>=5 to <10 times) and level 3 (>=10 times)
[1] = biological target: PH0986, lactam utilization protein (Pyrococcus horikoshii OT3) (UniProt O58714)
[2] = biological target: PH1904, hypothetical protein (Pyrococcus horikoshii OT3) (UniProt O59567)
[3] = biological target: PH1474, hypothetical protein (Pyrococcus horikoshii OT3) (UniProt O59143)
[4] = biological target: PH1153, putative acetylornithine deacetylase (Pyrococcus horikoshii OT3) (UniProt O58880)
[5] = biological target: PH1918, hypothetical protein (Pyrococcus horikoshii OT3) (UniProt O59581)
[6] = biological target: PH1408, putative uridylate kinase (Pyrococcus horikoshii OT3) (UniProt O50116)
[7] = biological target: PH1692, transcriptional regulator (AsnC-like protein) (Pyrococcus horikoshii OT3) (UniProt O59309)
[8] = biological target: PH1821, Frv operon protein, endoglucanase (Pyrococcus horikoshii OT3) (UniProt O59485)
[9] = biological target: PHS023, regulatory protein AsnC (Pyrococcus horikoshii OT3) (UniProt O73983)
[10] = biological target: PH0119, DNA repair protein (RadA/Rad51) (Pyrococcus horikoshii OT3) (UniProt O57859)
[11] = biological target: PH1257, hypothetical protein (Pyrococcus horikoshii OT3) (UniProt O58996)
[12] = biological target: PHS042, small nucleoprotein (Pyrococcus horikoshii OT3) (UniProt O74016)
[13] = biological target: PH0413, glucose-1-phosphate thymidylyltransferase (Pyrococcus horikoshii OT3) (UniProt O58150)
[14] = biological target: PHS053, archaea-specific DNA-binding protein AlbA (Pyrococcus horikoshii OT3) (UniProt O74101)

B1: PH0986, lactam utilization protein (protein, UniProt O58714 1-255)
chain: MRVDLNSDLGESFGRYKLGLDEEVMKYITSANVACGWHAGDPLVMRKTVRLAKENDVQVGAHPGYPDLMGFGRRYMKLTPEEARNYILYQVGALYAFAKAEGLELQHVKPHGALYNAMVKEEDLARAVIEGILDFDKDLILVTLSNSRVADIAEEMGLKVAHEVFADRAYNPDGTLVPRGRPGAVIEDKEEIAERVISMVKDGGIRAINGEWVDLKVDTICVHGDNPKAVEITSYIRKVLEEEGVKIVPMKEFIR
Q: For B1, which binding [1] is on record?
A: binds

B2: PH1904, hypothetical protein (protein, UniProt O59567 1-106)
chain: MSEMSVIIEFSIVPMGEVSISKYVAEIIKLVRDRGVKYQLTPMGTILEVNSIEEGLSIIRDAHELMFKLGSKRVLTTIRIDERRDKARTMEDKVKSVMEKVESVRE
Q: B2 was tested. Which binding [2] did it give?
A: binds

B3: PH1474, hypothetical protein (protein, UniProt O59143 1-267)
chain: MKVGVSIYPHFIKEGKTLPSILANVKIKDYDFVQIFPHALGLIRNGTVIESALKEVEIVLKGVGIDYIIRMPVSLNLRDSIYYSRHFKVAKAILDVAIKLGAKIIVMQSGKTGRLDLEIDAIRSLADTANKFDIKIALENTFSVKDTLYVIDNVNRDNVGFALDVAHAFLSAQGDENKLLEDVKLGIEKTILLLVHDNFGKMFPQVEPEDALAYGVGDLHLLPGEGKIPFGKILKLFDDVPILLKVKDPKVFANLPPKSELIERLRR
Q: With B3 as the binder, how does the binding [3] read?
A: binds

B4: PH1153, putative acetylornithine deacetylase (protein, UniProt O58880 1-354)
chain: MRKMKTERAKEILVQLLKIPSPSGREDRVALYIMEFLHKLNYDVHIESDGEIIDLVVNPGAELFFEVHMDTIDPRAEPFVRGNIVYGTGASDIKGGIASILLMLEQLRKEGKDLNVGIVFVSDEEKGGRGSALFMERYRPKMAVVLEPTDLEVHIAHAGNIEAYFEVDGKEAHGACPESGINAIEQTFEMLQKLKDLEPFKAKGKYFDPHIGIQELICENPYYLIPALCKGRLEARLLPDQEVEDILDLIDPILDEYTVKYEYTEIWDGYELSEDEEIVQIAKSAMDMVGLDEFGAMRSWTDAINFTYNGTKTIVFGPGNLDISHTKQERIDVRDVVKASEFLLAVNEIFGNKS
Q: For B4, which binding [4] is on record?
A: binds

B5: PH1918, hypothetical protein (protein, UniProt O59581 1-162)
chain: MVRIEVIDIEKPEGVEVIIGQGNFSIFTVDDLARALLTAVPGIKFGIAMNEAKPQLTRYTGNDPELEALAAKNAVKIGAGHVFVILMKNAYPINVLNTIKNHPAVAMIYGASENPFQVIVAETELGRAVIGVVDGKAANKIETDEQKKERRELVEKIGYKID
Q: Which binding [5] does the source give for B5 here?
A: binds

B6: PH1408, putative uridylate kinase (protein, UniProt O50116 1-225)
chain: MRIVFDIGGSVLVPEKPDVDFITKLGYELTKISEDHEIAIVVGGGKVAREYIEVASKFNTNETFKDYLGIQITRANAMLLIAALKERAYPQVVSDFWEAWKAIQLKKIPVMGGTHPGHTTDAVSALLAEFLSADLLVVITNVDGVYTEDPKKNPNAKKIPKMKAKDLVDIVSREAGKAGVSTVIDPLAAKIIMRSGIKTYVIGKEDALKLFDVIKGNHNGTIIEP
Q: Which binding [6] does the source give for B6 here?
A: binds

B7: PH1692, transcriptional regulator (AsnC-like protein) (protein, UniProt O59309 1-148)
chain: MELDALDRKILEILLKDSRTSYREIAKDLNVAVGTIYNRIKKLEDSGVIQAFTVKLNYESIGYDLTAIIGIKAQGKKIREIERIIAKDKRVTCVYDVTGEYDIIVIAKFRNREDMNRFVKGVLSIDGVEKTNTHVVLEIVKEDFRLEP
Q: For B7, which binding [7] is on record?
A: binds

B8: PH1821, Frv operon protein, endoglucanase (protein, UniProt O59485 1-354)
chain: MDLKGGESMVDWKLMQEIIEAPGVSGYEHLGIRDIVVDVLKEVADEVKVDKLGNVIAHFKGSSPRIMVAAHMDKIGVMVNHIDKDGYLHIVPIGGVLPETLVAQRIRFFTEKGERYGVVGVLPPHLRRGQEDKGSKIDWDQIVVDVGASSKEEAEEMGFRVGTVGEFAPNFTRLNEHRFATPYLDDRICLYAMIEAARQLGDHEADIYIVGSVQEEVGLRGARVASYAINPEVGIAMDVTFAKQPHDKGKIVPELGKGPVMDVGPNINPKLRAFADEVAKKYEIPLQVEPSPRPTGTDANVMQINREGVATAVLSIPIRYMHSQVELADARDVDNTIKLAKALLEELKPMDFTP
Q: B8 was tested. Which binding [8] did it give?
A: binds

B9: PHS023, regulatory protein AsnC (protein, UniProt O73983 1-75)
chain: MVTAFILMVTAAGKEREVMEKLLAMPEVKEAYVVYGEYDLIVKVETDTLKDLDQFITEKIRKMPEIQMTSTMIAI
Q: Which binding [9] does the source give for B9 here?
A: binds

B10: PH0119, DNA repair protein (RadA/Rad51) (protein, UniProt O57859 1-228)
chain: MKGSKSEVQGMVLTTGVKGLDELLGGGVARRVILQVYGPFATGKTTFAMQVGLLNEGKVAYVDTEGGFSPERLAQMARSRGLDPEKALSKFIIFEPMDLNEQRRVISKLKTIVDEKFSLVVVDSLTAHYRAEGSKNYGELAKQLQVLQWLARRKNVAVIVINQVYHDSNSNSLRPIAEHTLGYRTKDILRFEKLRVGVRLAVLERHRFRPEGGIVYFKITDKGLEDSK
Q: How did the binding [10] turn out when B10 was run?
A: binds

B11: PH1257, hypothetical protein (protein, UniProt O58996 1-227)
chain: MVGLADVAVLYSGGKDSNYALYWALKSGLRVRYLVSMVSENEESYMYHTPNVELTSLQARALGIPIIKGFTKGEKEKEVEDLKNVLEGLKVDGIVAGALASRYQKERIENVARELGLKVYTPAWEKDPYQYMLEIIKLGFKVVFVAVSAYGLNESWLGRELNYKNLEELKKLSEKYGIHIAGEGGEFETFVLDMPFFKAKIVIDDAEKFWDGLSGKFIIKRAHLEWK
Q: B11 was tested. Which binding [11] did it give?
A: binds

B12: PHS042, small nucleoprotein (protein, UniProt O74016 1-75)
chain: MAERPLDVIHRSLDKDVLVILKKGFEFRGRLIGYDIHLNVVLADAEMVQDGEVVKKYGKIVIRGDNVLAISPTEE
Q: For B12, which binding [12] is on record?
A: binds

B13: PH0413, glucose-1-phosphate thymidylyltransferase (protein, UniProt O58150 1-356)
chain: MVDTMKALILSGGYGTRLRPLTYSQQKQLIPVANKPVLFYAIEDVIEAGIHEIGIVVGPNADLVKKTVMSVDWDANIEFIYQGEPKGLAHAILVARDYLGDEDFVMYLGDNILREGIVRHKEHFEKSDYDASILLCEVPNPQQFGVAELSEDGKTIKRLVEKPKHPPSNLALVGIYFFRPIIHEAVRHIKPSWRNELEITDAIQWLIDNGYKVGWTKVTGWWKDTGKPEDLLEANRLVLDEIEKEVKVETRAKIIGRVKIEEGAQIDENSVIKGPAVIGKNAVIRNAYIGPYTSVGNNVVIEDTEVEDSIVMDDSIIVGAGRIVESIIGRGVKIIKGNSHPMGRRLIIGDNSQIVL
Q: Which binding [13] does the source give for B13 here?
A: binds

B14: PHS053, archaea-specific DNA-binding protein AlbA (protein, UniProt O74101 1-93)
chain: MTEEHVVYIGKKPVMNYVLAVITQFHEGAKEVSIKARGRAISRAVDVAEIVRNRFLKDDVDVKEIKIGTEELPTADGRTTNTSTIEIVLARKT
Q: Which binding [14] does the source give for B14 here?
A: binds
